From the supplement of paper PMC7666118
The other results are listed elsewhere or left out.

Protein sequences, listed by entry. Tags and fused reporters are not part of them. Lines headed by an entry give the natural chain unless they say otherwise; changes in a name come on top.
UniProt Q9Y3B9: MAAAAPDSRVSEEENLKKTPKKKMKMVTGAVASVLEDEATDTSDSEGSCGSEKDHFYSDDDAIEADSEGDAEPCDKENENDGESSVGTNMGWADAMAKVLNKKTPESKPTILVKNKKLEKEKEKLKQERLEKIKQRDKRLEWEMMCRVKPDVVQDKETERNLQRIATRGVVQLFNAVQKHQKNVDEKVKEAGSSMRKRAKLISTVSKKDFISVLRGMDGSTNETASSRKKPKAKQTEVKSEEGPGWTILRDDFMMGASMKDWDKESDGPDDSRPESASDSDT
UniProt Q9HCN8: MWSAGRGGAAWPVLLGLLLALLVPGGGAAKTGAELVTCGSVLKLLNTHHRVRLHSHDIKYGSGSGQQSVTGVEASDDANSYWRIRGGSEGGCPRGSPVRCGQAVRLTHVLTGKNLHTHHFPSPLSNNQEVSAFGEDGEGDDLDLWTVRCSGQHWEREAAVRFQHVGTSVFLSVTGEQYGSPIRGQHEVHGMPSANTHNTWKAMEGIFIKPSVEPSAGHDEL
UniProt Q8WU76: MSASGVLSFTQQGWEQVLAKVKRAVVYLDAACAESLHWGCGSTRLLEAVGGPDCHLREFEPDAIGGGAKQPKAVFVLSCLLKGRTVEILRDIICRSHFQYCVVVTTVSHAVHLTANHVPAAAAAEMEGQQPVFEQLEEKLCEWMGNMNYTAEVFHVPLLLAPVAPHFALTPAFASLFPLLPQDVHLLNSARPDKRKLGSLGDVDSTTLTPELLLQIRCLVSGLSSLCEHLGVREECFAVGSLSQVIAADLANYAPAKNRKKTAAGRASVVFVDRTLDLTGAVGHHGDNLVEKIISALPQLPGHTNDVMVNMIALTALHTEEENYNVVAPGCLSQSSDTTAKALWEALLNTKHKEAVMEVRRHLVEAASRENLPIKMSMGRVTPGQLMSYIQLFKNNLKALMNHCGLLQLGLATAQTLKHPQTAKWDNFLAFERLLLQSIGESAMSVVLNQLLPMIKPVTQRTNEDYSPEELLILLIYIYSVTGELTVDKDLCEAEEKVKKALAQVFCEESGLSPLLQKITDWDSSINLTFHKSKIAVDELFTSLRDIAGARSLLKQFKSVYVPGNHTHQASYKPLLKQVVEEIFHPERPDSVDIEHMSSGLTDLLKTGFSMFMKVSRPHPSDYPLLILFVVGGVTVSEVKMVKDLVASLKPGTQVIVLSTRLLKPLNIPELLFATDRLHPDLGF
UniProt Q9P2E9: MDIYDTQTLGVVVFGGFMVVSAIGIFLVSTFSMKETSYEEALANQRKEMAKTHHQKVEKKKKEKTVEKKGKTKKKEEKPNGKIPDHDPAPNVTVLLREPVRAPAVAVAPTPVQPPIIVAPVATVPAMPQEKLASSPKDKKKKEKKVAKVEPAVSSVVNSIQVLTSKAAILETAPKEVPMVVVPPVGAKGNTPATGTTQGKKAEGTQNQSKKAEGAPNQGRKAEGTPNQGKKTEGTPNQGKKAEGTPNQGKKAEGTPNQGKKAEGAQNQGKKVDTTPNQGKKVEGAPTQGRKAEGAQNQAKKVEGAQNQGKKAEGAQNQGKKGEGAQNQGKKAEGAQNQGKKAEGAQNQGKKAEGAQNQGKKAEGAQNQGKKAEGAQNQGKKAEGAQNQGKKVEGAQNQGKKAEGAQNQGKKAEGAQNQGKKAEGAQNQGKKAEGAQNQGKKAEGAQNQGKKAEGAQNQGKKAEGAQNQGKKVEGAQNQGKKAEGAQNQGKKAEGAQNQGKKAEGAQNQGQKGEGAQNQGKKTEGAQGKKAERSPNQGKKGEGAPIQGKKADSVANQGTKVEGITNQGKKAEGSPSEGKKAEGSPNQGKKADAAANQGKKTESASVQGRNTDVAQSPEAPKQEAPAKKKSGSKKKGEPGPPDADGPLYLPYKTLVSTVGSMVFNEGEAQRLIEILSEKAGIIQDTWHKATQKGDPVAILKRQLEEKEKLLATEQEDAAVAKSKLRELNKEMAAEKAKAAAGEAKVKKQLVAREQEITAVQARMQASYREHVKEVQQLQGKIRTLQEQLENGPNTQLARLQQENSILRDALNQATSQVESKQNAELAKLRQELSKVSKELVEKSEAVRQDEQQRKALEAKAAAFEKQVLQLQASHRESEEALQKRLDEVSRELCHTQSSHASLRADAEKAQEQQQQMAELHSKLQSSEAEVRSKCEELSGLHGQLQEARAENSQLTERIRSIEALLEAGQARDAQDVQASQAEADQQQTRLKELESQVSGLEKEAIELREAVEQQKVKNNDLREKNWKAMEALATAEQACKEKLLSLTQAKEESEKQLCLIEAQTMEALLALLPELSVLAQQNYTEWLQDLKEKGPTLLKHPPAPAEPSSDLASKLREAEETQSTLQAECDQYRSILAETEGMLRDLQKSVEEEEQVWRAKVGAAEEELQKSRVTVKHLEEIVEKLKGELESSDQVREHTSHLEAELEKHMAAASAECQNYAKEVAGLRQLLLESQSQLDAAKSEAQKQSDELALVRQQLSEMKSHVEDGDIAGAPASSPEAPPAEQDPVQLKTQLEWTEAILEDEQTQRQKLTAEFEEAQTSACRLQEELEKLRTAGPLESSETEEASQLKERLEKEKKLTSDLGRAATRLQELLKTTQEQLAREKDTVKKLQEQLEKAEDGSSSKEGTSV
UniProt O43148, whole entry: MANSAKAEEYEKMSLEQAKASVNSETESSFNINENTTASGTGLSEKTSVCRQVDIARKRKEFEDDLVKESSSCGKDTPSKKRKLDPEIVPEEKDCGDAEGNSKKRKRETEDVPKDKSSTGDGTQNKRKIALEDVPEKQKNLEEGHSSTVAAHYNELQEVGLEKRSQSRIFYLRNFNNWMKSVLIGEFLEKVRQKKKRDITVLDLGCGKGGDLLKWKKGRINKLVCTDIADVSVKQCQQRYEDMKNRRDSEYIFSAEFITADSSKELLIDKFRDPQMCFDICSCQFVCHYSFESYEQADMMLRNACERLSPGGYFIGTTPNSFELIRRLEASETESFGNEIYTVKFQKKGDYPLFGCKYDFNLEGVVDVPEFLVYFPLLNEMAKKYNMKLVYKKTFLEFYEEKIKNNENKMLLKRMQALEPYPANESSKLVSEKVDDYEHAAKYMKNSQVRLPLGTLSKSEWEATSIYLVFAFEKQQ
UniProt Q96KG9: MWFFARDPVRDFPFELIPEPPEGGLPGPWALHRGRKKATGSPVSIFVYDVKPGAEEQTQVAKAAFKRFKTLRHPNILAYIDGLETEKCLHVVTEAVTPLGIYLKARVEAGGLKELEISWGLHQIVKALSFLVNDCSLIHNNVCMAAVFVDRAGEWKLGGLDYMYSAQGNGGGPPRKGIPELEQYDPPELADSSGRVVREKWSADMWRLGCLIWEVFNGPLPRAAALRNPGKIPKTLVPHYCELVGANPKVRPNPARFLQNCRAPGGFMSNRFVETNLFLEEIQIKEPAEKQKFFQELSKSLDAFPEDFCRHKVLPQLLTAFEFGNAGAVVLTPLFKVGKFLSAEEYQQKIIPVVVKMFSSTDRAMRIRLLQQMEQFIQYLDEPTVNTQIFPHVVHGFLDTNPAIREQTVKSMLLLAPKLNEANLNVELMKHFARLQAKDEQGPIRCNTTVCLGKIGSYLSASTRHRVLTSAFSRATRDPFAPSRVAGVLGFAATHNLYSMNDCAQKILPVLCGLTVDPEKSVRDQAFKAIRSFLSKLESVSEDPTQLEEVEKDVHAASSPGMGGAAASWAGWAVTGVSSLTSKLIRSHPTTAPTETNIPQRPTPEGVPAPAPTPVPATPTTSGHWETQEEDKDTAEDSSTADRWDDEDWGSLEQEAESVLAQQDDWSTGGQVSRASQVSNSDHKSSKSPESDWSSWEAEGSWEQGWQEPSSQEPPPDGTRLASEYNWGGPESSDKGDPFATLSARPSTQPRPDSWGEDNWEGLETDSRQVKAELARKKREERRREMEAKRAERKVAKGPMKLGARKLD
UniProt O95977: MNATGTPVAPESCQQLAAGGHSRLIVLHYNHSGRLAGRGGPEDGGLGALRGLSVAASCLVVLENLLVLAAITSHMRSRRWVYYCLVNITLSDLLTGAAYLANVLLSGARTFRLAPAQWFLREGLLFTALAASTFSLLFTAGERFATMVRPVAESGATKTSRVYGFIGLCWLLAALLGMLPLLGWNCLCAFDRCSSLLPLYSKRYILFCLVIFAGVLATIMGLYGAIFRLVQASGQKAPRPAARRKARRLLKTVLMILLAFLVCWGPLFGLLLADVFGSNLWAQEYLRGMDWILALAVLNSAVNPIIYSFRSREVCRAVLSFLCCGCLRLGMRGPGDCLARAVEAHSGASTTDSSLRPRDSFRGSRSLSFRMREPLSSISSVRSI
UniProt Q8WYJ6: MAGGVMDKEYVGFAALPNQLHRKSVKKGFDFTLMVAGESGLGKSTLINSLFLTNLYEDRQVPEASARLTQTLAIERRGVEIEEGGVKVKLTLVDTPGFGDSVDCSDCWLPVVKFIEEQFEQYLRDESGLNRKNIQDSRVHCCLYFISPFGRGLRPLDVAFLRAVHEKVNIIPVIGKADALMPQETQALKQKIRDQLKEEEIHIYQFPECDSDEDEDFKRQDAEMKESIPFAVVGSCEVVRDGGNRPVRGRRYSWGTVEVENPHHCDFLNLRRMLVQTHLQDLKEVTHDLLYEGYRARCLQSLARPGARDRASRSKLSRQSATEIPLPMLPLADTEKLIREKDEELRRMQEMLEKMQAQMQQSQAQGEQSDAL
UniProt Q8IZ73: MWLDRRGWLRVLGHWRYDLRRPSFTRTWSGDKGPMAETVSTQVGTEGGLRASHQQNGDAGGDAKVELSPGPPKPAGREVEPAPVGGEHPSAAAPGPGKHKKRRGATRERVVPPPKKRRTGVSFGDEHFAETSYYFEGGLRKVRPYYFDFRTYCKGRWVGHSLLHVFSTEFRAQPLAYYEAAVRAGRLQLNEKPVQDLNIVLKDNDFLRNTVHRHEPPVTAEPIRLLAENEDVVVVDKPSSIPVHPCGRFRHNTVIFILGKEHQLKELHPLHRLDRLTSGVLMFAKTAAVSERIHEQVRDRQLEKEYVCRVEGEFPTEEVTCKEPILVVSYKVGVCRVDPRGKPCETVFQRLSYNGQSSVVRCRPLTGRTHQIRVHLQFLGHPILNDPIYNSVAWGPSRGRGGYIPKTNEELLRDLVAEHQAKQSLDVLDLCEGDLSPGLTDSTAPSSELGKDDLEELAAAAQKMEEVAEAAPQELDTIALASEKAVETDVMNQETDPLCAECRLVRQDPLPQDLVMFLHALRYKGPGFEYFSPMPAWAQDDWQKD
UniProt Q15020: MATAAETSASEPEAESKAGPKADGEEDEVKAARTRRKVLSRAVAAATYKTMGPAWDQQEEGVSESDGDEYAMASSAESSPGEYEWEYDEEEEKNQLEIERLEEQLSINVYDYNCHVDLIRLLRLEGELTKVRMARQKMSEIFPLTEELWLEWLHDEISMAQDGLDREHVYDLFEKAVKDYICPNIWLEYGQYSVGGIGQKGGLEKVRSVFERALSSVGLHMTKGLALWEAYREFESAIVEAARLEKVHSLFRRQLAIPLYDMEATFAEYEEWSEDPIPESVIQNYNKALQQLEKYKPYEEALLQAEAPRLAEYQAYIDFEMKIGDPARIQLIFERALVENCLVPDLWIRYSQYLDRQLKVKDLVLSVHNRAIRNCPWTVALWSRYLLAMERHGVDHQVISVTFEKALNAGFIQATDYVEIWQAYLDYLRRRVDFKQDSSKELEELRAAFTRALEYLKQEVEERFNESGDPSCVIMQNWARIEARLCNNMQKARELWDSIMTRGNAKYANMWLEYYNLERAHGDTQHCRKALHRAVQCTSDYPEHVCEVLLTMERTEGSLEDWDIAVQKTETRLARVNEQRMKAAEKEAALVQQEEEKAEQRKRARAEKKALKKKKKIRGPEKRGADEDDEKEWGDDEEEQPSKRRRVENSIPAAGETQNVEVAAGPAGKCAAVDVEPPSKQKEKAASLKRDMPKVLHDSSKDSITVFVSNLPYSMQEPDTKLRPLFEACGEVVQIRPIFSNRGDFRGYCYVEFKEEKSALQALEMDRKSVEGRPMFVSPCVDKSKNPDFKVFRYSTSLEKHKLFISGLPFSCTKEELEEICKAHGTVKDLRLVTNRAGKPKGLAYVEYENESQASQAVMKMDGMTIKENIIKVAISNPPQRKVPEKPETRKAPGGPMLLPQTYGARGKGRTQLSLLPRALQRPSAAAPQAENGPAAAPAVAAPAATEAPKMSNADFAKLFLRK
UniProt P60468, whole entry: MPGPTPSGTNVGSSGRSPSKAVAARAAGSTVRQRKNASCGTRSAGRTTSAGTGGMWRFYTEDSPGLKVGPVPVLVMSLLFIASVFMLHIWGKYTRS
UniProt O75845: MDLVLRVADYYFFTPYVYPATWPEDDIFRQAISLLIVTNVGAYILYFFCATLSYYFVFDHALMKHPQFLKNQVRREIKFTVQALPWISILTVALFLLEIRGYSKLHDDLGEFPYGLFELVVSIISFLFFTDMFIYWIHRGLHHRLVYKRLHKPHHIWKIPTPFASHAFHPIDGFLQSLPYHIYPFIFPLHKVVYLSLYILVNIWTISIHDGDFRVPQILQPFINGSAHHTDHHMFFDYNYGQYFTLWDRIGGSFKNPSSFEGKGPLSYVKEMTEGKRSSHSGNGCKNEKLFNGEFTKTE

compound: COc1ccc(Cn2ccc3cc(C)c(C(=O)NO)cc32)cc1; experiment: dose-dependent thermal stabilisation call (2D-TPP, DLPTP, 10% FDR) (binary (1 = stabilised)); higher = stabilised by the compound; conditions: system: HL-60 intact cells; concentration range 0.04-10 µM
Method: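 2D thermal proteome profiling in intact HL-60 cells treated with BRD-3811 (0, 0.04, 0.29, 2, 10 uM) for 90 min at 37 C, then heated 3 min at one of 12 temperatures (42-63.9 C). Soluble protein was quantified by TMT10 MS. The value is the DLPTP call of the paper: dose-dependent thermal stabilisation over all temperatures at 10% FDR (F-test of a dose-response against a flat model); one experiment, one call per tested protein.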

| Target | dose-dependent thermal stabilisation call |
| --- | --- |
| RPL5 (UniProt P46777) | inactive: 0 |
| RPL4 (UniProt P36578) | inactive: 0 |
| RPL24 (UniProt P83731) | inactive: 0 |
| SDAD1 (UniProt Q9NVU7) | inactive: 0 |
| RSL1D1 (UniProt O76021) | inactive: 0 |
| RRP15 (UniProt Q9Y3B9) | inactive: 0 |
| SEC24A (UniProt O95486) | inactive: 0 |
| SDF2L1 (UniProt Q9HCN8) | inactive: 0 |
| RPS5 (UniProt P46782) | inactive: 0 |
| SCFD2 (UniProt Q8WU76) | inactive: 0 |
| RPS11 (UniProt P62280) | inactive: 0 |
| RPS6KC1 (UniProt Q96S38) | inactive: 0 |
| RRBP1 (UniProt Q9P2E9) | inactive: 0 |
| RPA1 (UniProt P27694) | inactive: 0 |
| SAMD4B (UniProt Q5PRF9) | inactive: 0 |
| RNMT (UniProt O43148) | inactive: 0 |
| SART1 (UniProt O43290) | inactive: 0 |
| SEPHS2 (UniProt Q99611) | inactive: 0 |

| Target | dose-dependent thermal stabilisation call |
| --- | --- |
| RTN3 (UniProt O95197) | inactive: 0 |
| SCYL1 (UniProt Q96KG9) | inactive: 0 |
| S1PR4 (UniProt O95977) | inactive: 0 |
| RXRA (UniProt P19793) | inactive: 0 |
| SEPT1 (UniProt Q8WYJ6) | inactive: 0 |
| SEDLP | inactive: 0 |
| RPUSD2 (UniProt Q8IZ73) | inactive: 0 |
| SCO1 (UniProt O75880) | inactive: 0 |
| RNH1 (UniProt P13489) | inactive: 0 |
| SART3 (UniProt Q15020) | inactive: 0 |
| RNGTT (UniProt O60942) | inactive: 0 |
| SCAMP4 (UniProt Q969E2) | inactive: 0 |
| SDR39U1 (UniProt Q9NRG7) | inactive: 0 |
| SELS (UniProt Q9BQE4) | inactive: 0 |
| RPL19 (UniProt P84098) | inactive: 0 |
| SEC61B (UniProt P60468) | inactive: 0 |
| SC5DL (UniProt O75845) | inactive: 0 |

A stretch from the list above:

| Target | dose-dependent thermal stabilisation call |
| --- | --- |
| RTN3 (UniProt O95197) | inactive: 0 |
| SCYL1 (UniProt Q96KG9) | inactive: 0 |
